No constants are given. Whether binding was seen depends on the method and setting. For some of these results: In cells and extracts the contact can be indirect. Some results given as binding are weak or reduced against the parent protein; the word gives no strength. Sequences can lack the tags named with a protein.

The chains behind the UniProt entries cited, without tags or fusion partners. Where a name states a change or a piece, a line headed by the entry shows the natural chain unless it says otherwise.
UniProt Q8IZL8: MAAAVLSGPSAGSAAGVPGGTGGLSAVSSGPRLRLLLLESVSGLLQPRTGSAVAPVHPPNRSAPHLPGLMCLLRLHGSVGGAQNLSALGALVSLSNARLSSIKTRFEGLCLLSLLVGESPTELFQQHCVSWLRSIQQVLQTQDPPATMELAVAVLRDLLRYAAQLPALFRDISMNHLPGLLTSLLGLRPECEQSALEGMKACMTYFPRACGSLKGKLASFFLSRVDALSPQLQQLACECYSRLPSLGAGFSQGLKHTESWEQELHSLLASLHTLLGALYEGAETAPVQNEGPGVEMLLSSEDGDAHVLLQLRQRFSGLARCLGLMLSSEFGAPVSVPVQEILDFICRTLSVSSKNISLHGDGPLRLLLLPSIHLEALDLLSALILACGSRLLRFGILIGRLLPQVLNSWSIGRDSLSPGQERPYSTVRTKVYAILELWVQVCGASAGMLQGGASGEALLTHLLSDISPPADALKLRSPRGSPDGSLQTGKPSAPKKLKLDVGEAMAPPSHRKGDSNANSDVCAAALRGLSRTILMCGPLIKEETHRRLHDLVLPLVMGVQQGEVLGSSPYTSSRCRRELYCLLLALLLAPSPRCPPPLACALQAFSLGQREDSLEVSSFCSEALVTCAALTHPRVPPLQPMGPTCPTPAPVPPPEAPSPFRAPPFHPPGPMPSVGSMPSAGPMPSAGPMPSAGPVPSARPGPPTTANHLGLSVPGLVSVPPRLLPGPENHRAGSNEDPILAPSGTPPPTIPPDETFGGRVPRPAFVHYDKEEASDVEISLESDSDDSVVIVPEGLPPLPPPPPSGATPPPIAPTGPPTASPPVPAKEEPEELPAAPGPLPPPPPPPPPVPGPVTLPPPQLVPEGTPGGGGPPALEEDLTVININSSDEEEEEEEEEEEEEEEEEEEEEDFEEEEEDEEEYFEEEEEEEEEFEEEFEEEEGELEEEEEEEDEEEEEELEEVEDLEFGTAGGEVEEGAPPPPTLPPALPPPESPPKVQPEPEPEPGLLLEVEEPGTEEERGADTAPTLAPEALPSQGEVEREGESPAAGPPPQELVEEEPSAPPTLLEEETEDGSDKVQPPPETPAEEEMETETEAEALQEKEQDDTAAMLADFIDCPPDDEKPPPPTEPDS

For test [1], the target named is T1, GST fusion to the ligand binding domain of VDR, amino acids 110-427 (GST-VDR-LBD) (human) (UniProt P11473).
T1 sequence: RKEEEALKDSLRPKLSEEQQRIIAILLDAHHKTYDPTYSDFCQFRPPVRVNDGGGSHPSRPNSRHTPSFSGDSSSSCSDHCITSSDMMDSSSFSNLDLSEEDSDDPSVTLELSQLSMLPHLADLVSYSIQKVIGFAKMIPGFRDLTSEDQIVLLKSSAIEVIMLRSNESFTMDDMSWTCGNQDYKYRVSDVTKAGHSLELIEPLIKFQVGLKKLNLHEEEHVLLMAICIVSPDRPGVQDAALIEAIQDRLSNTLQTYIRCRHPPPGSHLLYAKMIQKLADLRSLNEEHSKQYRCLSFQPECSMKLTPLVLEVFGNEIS
The test is described as follows: GST pull-down: 35S-labelled full length MNAR with GST-VDR-LBD, with or without 100 nM 1,25(OH)2 Vit D3 (legend of FIG. 1).

Test [2] has as its target T1, GST fusion to the ligand binding domain of VDR, amino acids 110-427 (GST-VDR-LBD) (human). Nature of the test: GST pull-down: 35S-labelled full length MNAR with GST-VDR-LBD on glutathione-Sepharose, with or without 100 nM 1,25(OH)2 Vit D3, SDS-PAGE and autoradiography.
The target of test [3] is T2, Biotinylated peptide corresponding to MNAR LXXLL motif #5.
T2 sequence (peptide, biotinylated (position not stated)): LPGLLTSLL
The test is described as follows: ELISA-type assay: GST-VDR-LBD with vehicle or 100 nM 1,25(OH)2 Vit D3 on immobilised MNAR LXXLL peptides, anti-GST-HRP (legend of FIG. 2).

The target is the same in test [4]. The test is described as follows: ELISA-type assay: GST-VDR-LBD preincubated with vehicle or 1,25(OH)2D3 on biotinylated peptide immobilised on a NeutrAvidin plate, anti-GST-HRP chemiluminescence. Background: In an ELISA, binding on a coated surface is turned into a signal by an enzyme label.

Regarding “Modulator of nongenomic activity of estrogen receptor (MNAR) (from UniProt Q8IZL8 1-1130)”, the binding entry in test [1] and in test [2] was “binds” each time.

B1: GST fusion to the ligand binding domain of VDR, amino acids 110-427 (GST-VDR-LBD) (receptor, not shown: a dimerising Fc or GST)
chain: RKEEEALKDSLRPKLSEEQQRIIAILLDAHHKTYDPTYSDFCQFRPPVRVNDGGGSHPSRPNSRHTPSFSGDSSSSCSDHCITSSDMMDSSSFSNLDLSEEDSDDPSVTLELSQLSMLPHLADLVSYSIQKVIGFAKMIPGFRDLTSEDQIVLLKSSAIEVIMLRSNESFTMDDMSWTCGNQDYKYRVSDVTKAGHSLELIEPLIKFQVGLKKLNLHEEEHVLLMAICIVSPDRPGVQDAALIEAIQDRLSNTLQTYIRCRHPPPGSHLLYAKMIQKLADLRSLNEEHSKQYRCLSFQPECSMKLTPLVLEVFGNEIS
Consider B1, for which the binding entry in test [3] and in test [4] was “binds” each time.

Source of the values: patent US20050202515A1, “Functional method for generating or screening for ligands which modulate steroid hormone receptors” (Wyeth, priority 2004, published 2005).
